Experimental data reported in patent US12637467B2, “Inhibitor of BTK and mutants thereof” (Newave Pharmaceutical Inc., priority 2019, dated 2026).
The match of structure and compound is tentative.

Chains of the proteins cited; added tags and fusions are not shown.
UniProt Q06187, whole entry: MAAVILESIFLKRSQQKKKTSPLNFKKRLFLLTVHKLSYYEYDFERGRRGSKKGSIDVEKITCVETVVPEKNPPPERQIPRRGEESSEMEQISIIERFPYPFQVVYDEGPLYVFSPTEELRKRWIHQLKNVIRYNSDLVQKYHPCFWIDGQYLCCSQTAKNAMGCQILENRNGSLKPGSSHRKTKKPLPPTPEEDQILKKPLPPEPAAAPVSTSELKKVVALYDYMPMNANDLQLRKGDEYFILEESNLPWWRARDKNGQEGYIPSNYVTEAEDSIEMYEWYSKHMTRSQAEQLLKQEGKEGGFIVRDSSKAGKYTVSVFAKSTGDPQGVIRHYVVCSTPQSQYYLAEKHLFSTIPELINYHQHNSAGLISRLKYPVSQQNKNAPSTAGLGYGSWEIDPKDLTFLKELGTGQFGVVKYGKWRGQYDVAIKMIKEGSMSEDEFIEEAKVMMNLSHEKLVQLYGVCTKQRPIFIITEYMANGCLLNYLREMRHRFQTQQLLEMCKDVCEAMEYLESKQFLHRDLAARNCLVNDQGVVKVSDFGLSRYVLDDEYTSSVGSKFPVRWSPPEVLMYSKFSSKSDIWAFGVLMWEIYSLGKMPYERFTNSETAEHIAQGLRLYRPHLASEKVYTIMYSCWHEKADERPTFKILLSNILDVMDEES

Target: WT BTK (Homo sapiens, UniProt Q06187)
Test: In vitro dialysis assay (irreversibility assay), WT BTK
Format: biochemical
Settings: for Recovery after 24 h dialysis: 0.003 mM compound pre-incubated with 2 nM BTK for 2 hr, dialyzed 24 hr against buffer with 40 mM ATP, BTK activity vs non-dialyzed samples; for Conclusion (WT BTK): reversible or irreversible inhibition after 24 hr dialysis

Recovery after 24 h dialysis [%] | Conclusion (WT BTK) | SMILES
~1 | Irreversible/covalent inhibition | C=CC(=O)Nc1cc(Nc2nc(-c3ccnc(N4CCn5c(cc6c5CC(C)(C)C6)C4=O)c3CO)cn(C)c2=O)ccc1N1CCC(N2CCC(F)(F)CC2)C[C@@H]1C (stereo partly shown)
~1 | Irreversible/covalent inhibition | C=CC(=O)Nc1cc(Nc2nc(-c3ccnc(N4CCn5c(cc6c5CC(C)(C)C6)C4=O)c3CO)cn(C)c2=O)ccc1N1CCC(N2CCN(C)CC2)C[C@@H]1C (stereo partly shown)
